This assay deals with p53 tumor suppressor protein (human (endogenous in HCT116)) (UniProt P04637). The assay can be described thus: co-IP; lysates (about 250 ug protein) of HCT116 p53 WT cells treated with doxorubicin or 5-FU; immunoprecipitation with 2 ug anti-p53 DO-1 overnight at 4°C, Protein A/G Dynabeads, normal mouse IgG as control; Western blot for p53 and JMJD2B; lysis buffer 20 mM Tris-HCl pH 7.5, 150 mM NaCl, 1 mM EDTA, 1 mM EGTA, 1% Triton X-100. Background: In western blotting, separated proteins are transferred to a membrane and probed.

Sequences of proteins named here, by UniProt entry; tags and fusion partners are left off.
UniProt O94953: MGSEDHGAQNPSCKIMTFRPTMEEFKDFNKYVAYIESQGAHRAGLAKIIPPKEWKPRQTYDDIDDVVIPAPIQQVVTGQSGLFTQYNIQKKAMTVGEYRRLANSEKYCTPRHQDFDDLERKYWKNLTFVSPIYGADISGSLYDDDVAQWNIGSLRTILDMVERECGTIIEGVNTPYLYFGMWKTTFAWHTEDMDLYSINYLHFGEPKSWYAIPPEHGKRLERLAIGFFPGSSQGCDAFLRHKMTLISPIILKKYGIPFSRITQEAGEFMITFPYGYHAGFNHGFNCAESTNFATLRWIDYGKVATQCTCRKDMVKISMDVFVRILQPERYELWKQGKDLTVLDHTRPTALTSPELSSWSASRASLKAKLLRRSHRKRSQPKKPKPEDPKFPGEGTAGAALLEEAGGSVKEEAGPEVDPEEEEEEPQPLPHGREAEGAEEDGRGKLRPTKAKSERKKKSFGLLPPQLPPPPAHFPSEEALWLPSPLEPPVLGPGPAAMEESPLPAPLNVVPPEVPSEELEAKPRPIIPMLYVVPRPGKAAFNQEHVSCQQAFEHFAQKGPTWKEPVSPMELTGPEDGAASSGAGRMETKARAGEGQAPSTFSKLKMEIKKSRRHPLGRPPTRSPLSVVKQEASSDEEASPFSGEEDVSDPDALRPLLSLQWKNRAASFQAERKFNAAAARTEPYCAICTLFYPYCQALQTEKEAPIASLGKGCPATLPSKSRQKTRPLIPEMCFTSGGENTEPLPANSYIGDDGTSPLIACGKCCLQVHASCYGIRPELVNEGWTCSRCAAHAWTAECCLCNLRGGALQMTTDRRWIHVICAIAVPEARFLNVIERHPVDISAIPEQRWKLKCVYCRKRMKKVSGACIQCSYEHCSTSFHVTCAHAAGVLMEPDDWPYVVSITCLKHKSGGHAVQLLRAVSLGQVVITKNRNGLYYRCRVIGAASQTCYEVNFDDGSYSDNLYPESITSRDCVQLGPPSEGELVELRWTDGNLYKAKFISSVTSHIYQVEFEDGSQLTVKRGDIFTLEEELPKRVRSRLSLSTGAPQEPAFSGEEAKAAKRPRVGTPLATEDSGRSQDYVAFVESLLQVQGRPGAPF

No constants are given. Whether binding was seen depends on the method and setting. In cells and extracts the contact can be indirect.

For “JMJD2B/KDM4B (histone demethylase 4B, Jumonji domain-containing protein 2B) (from UniProt O94953 1-1096)”, the binding result was “no binding”.

The record behind these values is publication PMC5397198.
